Test [1] addresses HA-tagged β-catenin (UniProt P35222). The test can be described thus: co-IP; HA-β-catenin and Flag-TAZ transiently coexpressed in AGS cells; lysates immunoprecipitated with anti-HA antibody and beads overnight at 4°C, then immunoblotted. (In general: In western blotting, separated proteins are transferred to a membrane and probed.)
The target of test [2] is TAZ (endogenous) (human (endogenous in AGS)) (UniProt Q9GZV5). Put plainly: co-IP; endogenous proteins; cell lysates immunoprecipitated with anti-TAZ antibody and beads overnight at 4°C, blotted for β-catenin; cells uninfected or cocultured with H. pylori NCTC11637 or 7.13 (MOI 100, 6 h), or with the wild-type strain or its CagA- mutant (6 h).

Sequences of proteins named here, by UniProt entry; tags and fusion partners are left off.
UniProt P35222: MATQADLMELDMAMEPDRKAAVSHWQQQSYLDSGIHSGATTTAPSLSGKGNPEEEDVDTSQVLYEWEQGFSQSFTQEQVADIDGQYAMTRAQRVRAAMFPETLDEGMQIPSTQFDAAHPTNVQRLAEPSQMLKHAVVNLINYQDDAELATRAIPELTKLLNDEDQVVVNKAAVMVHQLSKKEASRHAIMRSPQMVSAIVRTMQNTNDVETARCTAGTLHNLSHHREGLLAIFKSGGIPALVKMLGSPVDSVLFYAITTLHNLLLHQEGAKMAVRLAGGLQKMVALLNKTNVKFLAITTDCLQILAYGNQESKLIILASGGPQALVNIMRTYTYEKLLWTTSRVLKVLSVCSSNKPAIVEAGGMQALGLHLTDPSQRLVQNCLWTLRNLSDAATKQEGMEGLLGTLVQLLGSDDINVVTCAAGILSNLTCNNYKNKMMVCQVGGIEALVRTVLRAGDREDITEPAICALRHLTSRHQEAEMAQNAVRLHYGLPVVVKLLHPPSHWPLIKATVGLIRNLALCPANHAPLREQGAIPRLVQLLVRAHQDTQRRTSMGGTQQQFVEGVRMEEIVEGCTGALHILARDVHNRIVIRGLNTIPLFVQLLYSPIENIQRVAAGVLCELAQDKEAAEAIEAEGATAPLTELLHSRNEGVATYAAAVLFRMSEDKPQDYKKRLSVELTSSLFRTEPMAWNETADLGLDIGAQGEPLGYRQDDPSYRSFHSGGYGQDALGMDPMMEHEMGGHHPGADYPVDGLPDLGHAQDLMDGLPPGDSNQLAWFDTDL
UniProt Q9GZV5: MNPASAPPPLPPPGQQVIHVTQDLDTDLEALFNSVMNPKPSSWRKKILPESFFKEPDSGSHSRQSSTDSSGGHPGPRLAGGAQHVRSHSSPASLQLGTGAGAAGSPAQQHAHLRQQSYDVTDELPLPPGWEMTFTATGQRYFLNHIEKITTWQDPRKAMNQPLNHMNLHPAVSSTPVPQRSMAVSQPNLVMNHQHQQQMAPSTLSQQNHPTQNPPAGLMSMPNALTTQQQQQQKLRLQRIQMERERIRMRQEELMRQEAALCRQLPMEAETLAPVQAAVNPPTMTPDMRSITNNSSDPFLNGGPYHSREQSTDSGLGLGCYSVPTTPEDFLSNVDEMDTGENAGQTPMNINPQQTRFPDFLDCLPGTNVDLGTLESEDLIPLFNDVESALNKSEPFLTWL

No constants are given. Whether binding was seen depends on the method and setting. In cells and extracts the contact can be indirect. Some entries that bind do so weakly or less than the wild type.

With “Flag-tagged TAZ (from UniProt Q9GZV5 1-400)”, the binding entry in test [1] is recorded as “binds”.

With “β-catenin (endogenous) (from UniProt P35222 1-781)”, the binding entry in test [2] was “binds”.

The record behind these values is publication PMC9816148.
